Assay results published in the supplement of paper PMC12009310.
Where a name gives a salt, the structure may show the parent alone. ± gives the standard deviation of the averaged measurements. Some of the results follow. Baselines shift from plate to plate; read single values as rough.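 The cells are a mouse kidney inner medullary collecting duct line, silenced either for the ciliary gene Rpgrip1l or with a non-targeting control siRNA.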

What was measured:
mIMCD3 [1] = experiment: robust z score of cell number vs plate controls; higher = more cells (less cytotoxic); conditions: 10 µM, 48 h
mIMCD3 [2] = experiment: robust z score of cilia incidence (% cells with single cilium) vs plate controls; higher = more ciliated cells; conditions: 10 µM; 48 h; siRNA: siScr
mIMCD3 [3] = experiment: robust z score of cilia incidence (% cells with single cilium) vs plate controls; higher = more ciliated cells (rescue of cilia loss); conditions: 10 µM; 48 h; siRNA: siRpgrip1l

| Structure (SMILES) | robust z score of cell number (mIMCD3 [1]; siRNA: siRpgrip1l) | robust z score of cell number (mIMCD3 [1]; siRNA: siScr) | robust z score of cilia incidence (mIMCD3 [2]) | robust z score of cilia incidence (mIMCD3 [3]) |
| --- | --- | --- | --- | --- |
| COc1ccc(NC(=O)c2cc(OCCCN(C)C)nn2Cc2ccccc2)cc1 [CFM 1571 hydrochloride] | -10.8 ± 0.6 | -45.4 ± 37 | -11.7 ± 5.9 | -29.4 ± 5.7 |
| CC(C)NCC(O)COc1ccc(CCOCC2CC2)cc1 (centres undefined) [Betaxolol hydrochloride] | -5.445 ± 0.053 | -3.75 ± 4.6 | -7.66 ± 5.2 | -13.6 ± 3.2 |
| CC(=O)NNC(=O)N1Cc2ccccc2Oc2ccc(Cl)cc21 | -8 ± 3.9 | -2.47 ± 0.41 | 0.175 ± 0.51 | -15.6 ± 0.49 |
| COc1cc(COc2cc(N)c(Cl)cc2C(=O)CCC2CCN(CCNS(C)(=O)=O)CC2)cc(OC)c1 | -30.06 ± 0.054 | -29.8 ± 15 | -39 ± 5.1 | -29.5 ± 4.3 |
| OC[C@H]1O[C@@H](n2cnc3c(NC4CCCC4)ncnc32)[C@H](O)[C@@H]1O [N6-Cyclopentyladenosine] | -1.77 ± 1.5 | -1.9 ± 0.48 | -5.54 ± 0.4 | -18.8 ± 9.9 |
| CCOc1ccc(Nc2nc(-c3c(C)nc4ccccn34)cs2)cc1 | -29.5 ± 28 | -14.2 ± 13 | -26.6 ± 19 | -29.9 ± 6.7 |
| CN1CC(=O)N=C1NC(=O)Nc1cccc(Cl)c1 [Fenobam] | -5.23 ± 5.6 | -1.4 ± 1.4 | 1.66 ± 1.1 | -7.78 ± 5.5 |
| O=C(O)c1ccc(C=C2SC(=S)N(c3cccc(C(F)(F)F)c3)C2=O)cc1 | -27.2 ± 37 | -4.29 ± 1.6 | -7.99 ± 11 | -13 ± 16 |
| Cc1cc(C)c(S(=O)(=O)Nc2ccccc2C(F)(F)F)c(C)c1 | -9.07 ± 6.3 | -8.28 ± 0.37 | 7.3 ± 3.2 | -10.4 ± 1.3 |
| C=C[C@@]1(C)CC(=O)[C@]2(O)[C@@]3(C)[C@@H](O)CCC(C)(C)[C@@H]3[C@H](O)[C@H](OC(C)=O)[C@@]2(C)O1 [Forskolin] | -22.9 ± 16 | -8.86 ± 1.6 | -2.36 ± 0.92 | -13.4 ± 1.2 |
| O=C(O)CCC/C=C\CC1C(O)CC(O)C1/C=C/C(O)COc1cccc(Cl)c1 (racemic) [(±)-Cloprostenol sodium salt] | -6.16 ± 4.2 | -1.6 ± 2.3 | 1.24 ± 0.22 | -11.1 ± 6.8 |
| O=[N+]([O-])c1cc2nc(O)c(O)nc2cc1[N+](=O)[O-] | 0.0604 ± 3.2 | 1.3 ± 2.3 | 0.373 ± 0.91 | -8.97 ± 8.1 |
| C=CCn1c(=O)n([C@@H]2O[C@H](CO)[C@@H](O)[C@H]2O)c2nc(N)[nH]c(=O)c21 | -5.52 ± 2.4 | -0.605 ± 1.1 | 0.636 ± 0.0066 | -6.16 ± 0.26 |
| CCCCC1CCC(c2nc(-c3ccncc3)no2)CC1 (centres undefined) | -16.4 ± 17 | -6.85 ± 2.3 | -7.82 ± 6.8 | -9.59 ± 5 |
| OC(CN1CCC(Cc2ccc(F)cc2)CC1)c1ccc(Cl)cc1 (centres undefined) [Eliprodil] | -3.72 ± 1.5 | -9.09 ± 10 | -6.69 ± 0.8 | -27.4 ± 16 |
| CC(C)N1Cc2cc(S(C)(=O)=O)ccc2N(CCN2CC=C(c3c[nH]c4cc(F)ccc34)CC2)S1(=O)=O | -28.7 ± 34 | -7.01 ± 4 | -10.1 ± 1 | -20.5 ± 17 |
| CS(=O)(=O)c1ccc(Cn2c3c(c4cc(F)cc(F)c42)CCCC3CC(=O)O)cc1 (centres undefined) | -13.6 ± 13 | -8.82 ± 4.6 | -0.141 ± 2.5 | -19.3 ± 13 |
| COc1cc([C@@H]2c3cc4c(cc3[C@@H](O[C@@H]3O[C@@H]5CO[C@@H](C)O[C@H]5[C@H](O)[C@H]3O)[C@H]3COC(=O)[C@H]23)OCO4)cc(OC)c1O [Etoposide] | -283 ± 200 | -37.9 ± 8.9 | -24 ± 6.7 | -20.5 ± 5.5 |
| O=C(O)COc1ccc(OCCNC[C@H](O)COc2ccccc2)cc1 [ICI 215,001 hydrochloride] | -2.61 ± 1.3 | 0.15 ± 1.7 | -3.51 ± 1.2 | -9.36 ± 4.3 |
| CCSC(=N)N [EIT hydrobromide] | 1.17 ± 5 | -1.79 ± 2.5 | 0.757 ± 4.7 | -9.91 ± 7.9 |
| CC1(C)Oc2ccc(C#N)cc2[C@@H](N2CCCC2=O)[C@@H]1O [Levcromakalim] | -26.4 ± 32 | -3.94 ± 8.5 | 0.883 ± 1.1 | -4.8 ± 0.57 |
| N#C/C(=C\c1ccc(O)c(O)c1)C(=O)Nc1ccccc1 | -53.5 ± 57 | -23.2 ± 17 | -2.83 ± 4.5 | -15 ± 3.1 |
| c1ccc(N2CCN(Cc3nc4ccccc4[nH]3)CC2)nc1 [ABT 724 trihydrochloride] | 1.91 ± 1 | -0.759 ± 3.4 | 0.126 ± 1.4 | -7.02 ± 2.2 |
| NC(=O)c1ccc2[nH]ccc2c1 | -6.58 ± 3.9 | 2.35 ± 2.2 | 1.83 ± 0.45 | -8.53 ± 5.1 |
| Cc1c(CC(C)(C)C(=O)O)n(Cc2ccc(Cl)cc2)c2ccc(F)cc12 | -44.1 ± 40 | -43.8 ± 28 | -31.2 ± 8 | -46.3 ± 40 |
| CC#CCOC(=O)c1c(C)nc2sc3c(c2c1N)CCC(O)C3 (centres undefined) | -139 ± 150 | -32.5 ± 5.6 | -20 ± 6.8 | -410 ± 250 |

Only robust z score of cell number (mIMCD3 [1]; siRNA: siScr), for some of the entries so far:

| Structure (SMILES) | robust z score of cell number (mIMCD3 [1]; siRNA: siScr) |
| --- | --- |
| CN1CC(=O)N=C1NC(=O)Nc1cccc(Cl)c1 [Fenobam] | -1.4 ± 1.4 |
| NC(=O)c1ccc2[nH]ccc2c1 | 2.35 ± 2.2 |
